# This list was built around the results that the source calls inconclusive (neither active nor inactive); the mix of calls is not that of the screen. For part of these data: Potencies beside an inconclusive call are fits to weak or partial responses and may not hold up. Calls of active or inactive are those of the source. Rule for the calls: active = hit-call score of the fitted dose curve at least 0.9, where 1 is the maximum; inconclusive = response in the unintended direction; inactive = score below 0.9.
# Chains of the proteins cited; added tags and fusions are not shown. Lines headed by an entry give the natural chain unless they say otherwise; changes in a name come on top.
# UniProt P08219: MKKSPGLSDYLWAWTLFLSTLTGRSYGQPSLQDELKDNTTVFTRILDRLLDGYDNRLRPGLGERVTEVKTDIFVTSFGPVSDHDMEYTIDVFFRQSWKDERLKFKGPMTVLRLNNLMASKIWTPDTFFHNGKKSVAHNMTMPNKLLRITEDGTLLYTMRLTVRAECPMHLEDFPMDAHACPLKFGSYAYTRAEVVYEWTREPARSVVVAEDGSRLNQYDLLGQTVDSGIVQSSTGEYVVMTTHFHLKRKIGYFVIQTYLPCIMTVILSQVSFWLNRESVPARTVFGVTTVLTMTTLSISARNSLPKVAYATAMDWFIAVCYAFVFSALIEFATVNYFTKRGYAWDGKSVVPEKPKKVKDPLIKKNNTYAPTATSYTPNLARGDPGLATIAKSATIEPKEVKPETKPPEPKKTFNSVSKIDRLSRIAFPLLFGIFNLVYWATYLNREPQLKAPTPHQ
# UniProt Q14994: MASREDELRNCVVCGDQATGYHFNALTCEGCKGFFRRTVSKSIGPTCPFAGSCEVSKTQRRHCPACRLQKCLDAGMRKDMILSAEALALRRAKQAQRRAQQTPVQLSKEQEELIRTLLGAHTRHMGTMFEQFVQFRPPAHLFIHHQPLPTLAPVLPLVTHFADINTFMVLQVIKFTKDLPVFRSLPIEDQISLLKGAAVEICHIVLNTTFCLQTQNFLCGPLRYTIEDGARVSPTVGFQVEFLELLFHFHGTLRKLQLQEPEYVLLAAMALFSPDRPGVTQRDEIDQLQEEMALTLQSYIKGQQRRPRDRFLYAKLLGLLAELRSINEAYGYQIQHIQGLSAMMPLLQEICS
# UniProt Q92731, whole entry, looked up: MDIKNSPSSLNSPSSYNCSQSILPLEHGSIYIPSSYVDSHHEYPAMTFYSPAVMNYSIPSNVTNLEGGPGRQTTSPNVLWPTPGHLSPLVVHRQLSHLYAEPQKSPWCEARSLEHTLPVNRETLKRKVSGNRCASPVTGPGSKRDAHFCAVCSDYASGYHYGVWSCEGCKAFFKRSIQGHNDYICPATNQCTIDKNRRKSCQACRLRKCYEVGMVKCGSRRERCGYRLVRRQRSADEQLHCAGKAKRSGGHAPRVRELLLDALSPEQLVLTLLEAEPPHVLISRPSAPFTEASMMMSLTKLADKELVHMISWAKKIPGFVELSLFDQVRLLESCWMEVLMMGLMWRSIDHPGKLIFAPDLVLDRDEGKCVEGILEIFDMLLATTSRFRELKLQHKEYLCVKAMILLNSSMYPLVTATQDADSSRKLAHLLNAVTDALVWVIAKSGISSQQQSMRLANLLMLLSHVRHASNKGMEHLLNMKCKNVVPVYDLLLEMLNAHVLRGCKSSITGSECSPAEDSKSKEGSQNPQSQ
# UniProt P03372, whole entry, looked up: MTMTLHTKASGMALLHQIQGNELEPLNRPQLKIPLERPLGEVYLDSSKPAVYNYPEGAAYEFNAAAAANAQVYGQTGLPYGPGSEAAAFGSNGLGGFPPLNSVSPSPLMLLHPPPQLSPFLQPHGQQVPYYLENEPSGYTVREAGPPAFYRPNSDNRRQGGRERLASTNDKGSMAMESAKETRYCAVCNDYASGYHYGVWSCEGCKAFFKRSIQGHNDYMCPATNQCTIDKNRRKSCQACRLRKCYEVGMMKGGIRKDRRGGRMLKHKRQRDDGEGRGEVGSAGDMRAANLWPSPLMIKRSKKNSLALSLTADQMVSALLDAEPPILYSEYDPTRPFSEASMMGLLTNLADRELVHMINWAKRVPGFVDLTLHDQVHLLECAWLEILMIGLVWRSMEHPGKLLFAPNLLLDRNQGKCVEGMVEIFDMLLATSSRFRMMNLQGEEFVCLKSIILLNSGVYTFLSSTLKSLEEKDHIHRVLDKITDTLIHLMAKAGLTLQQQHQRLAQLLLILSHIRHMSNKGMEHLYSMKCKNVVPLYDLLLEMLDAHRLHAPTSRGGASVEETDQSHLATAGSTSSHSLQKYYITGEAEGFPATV
# UniProt P07727: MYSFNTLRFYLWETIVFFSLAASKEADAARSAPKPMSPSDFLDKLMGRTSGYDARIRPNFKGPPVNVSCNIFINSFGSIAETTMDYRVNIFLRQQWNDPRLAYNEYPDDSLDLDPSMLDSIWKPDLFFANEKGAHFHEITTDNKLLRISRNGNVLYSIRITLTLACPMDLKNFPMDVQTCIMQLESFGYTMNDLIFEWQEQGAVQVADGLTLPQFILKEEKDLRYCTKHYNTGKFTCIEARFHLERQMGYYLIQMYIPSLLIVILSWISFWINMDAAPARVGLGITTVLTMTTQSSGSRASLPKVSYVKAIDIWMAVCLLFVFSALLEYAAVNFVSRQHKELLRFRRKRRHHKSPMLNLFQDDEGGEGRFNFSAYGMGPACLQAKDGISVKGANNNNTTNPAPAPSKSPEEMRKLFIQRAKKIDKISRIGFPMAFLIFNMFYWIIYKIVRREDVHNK
# UniProt P49884, whole entry, looked up: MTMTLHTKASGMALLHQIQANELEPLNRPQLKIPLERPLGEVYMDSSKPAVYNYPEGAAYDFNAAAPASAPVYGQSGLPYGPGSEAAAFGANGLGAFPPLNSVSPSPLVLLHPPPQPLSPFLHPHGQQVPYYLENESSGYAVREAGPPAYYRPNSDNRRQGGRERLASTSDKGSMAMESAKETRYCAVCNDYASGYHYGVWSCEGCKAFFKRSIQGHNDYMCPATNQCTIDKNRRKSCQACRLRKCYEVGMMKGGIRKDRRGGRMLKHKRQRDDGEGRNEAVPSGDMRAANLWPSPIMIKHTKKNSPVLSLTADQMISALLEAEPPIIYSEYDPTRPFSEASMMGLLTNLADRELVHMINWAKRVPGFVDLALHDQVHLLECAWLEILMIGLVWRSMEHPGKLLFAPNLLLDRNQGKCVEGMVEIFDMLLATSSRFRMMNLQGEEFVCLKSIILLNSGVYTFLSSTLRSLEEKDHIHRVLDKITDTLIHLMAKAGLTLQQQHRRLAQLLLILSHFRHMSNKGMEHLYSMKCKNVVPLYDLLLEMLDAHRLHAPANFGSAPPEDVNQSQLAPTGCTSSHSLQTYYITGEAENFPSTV
# Columns and labels:
# [1] = target: bovine Gamma-Aminobutyric Acid Type A Receptor Agonist (GABAR Agonist), GABRA1 (gene 780973) (UniProt P08219); test: NVS_LGIC_bGABAR_Agonist: NovaScreen (NVS) Ligand-Gated Ion Channel Assay for bovine Gamma-Aminobutyric Acid Type A Receptor Agonist (GABAR Agonist) (AID 2283338)
# How it was run: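 Radioligand binding to bovine cerebellar membranes in agonist format, read by filter-based scintillation counting after 1 h. Primary screen in duplicate at 25 uM, with actives followed in concentration series. Gain of signal versus DMSO.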
# [2] = target: human Constitutive Androstane Receptor (CAR), NR1I3 (gene 9970) (UniProt Q14994); test: NVS_NR_hCAR_Antagonist: NovaScreen (NVS) Nuclear Receptor Binding Assay for human Constitutive Androstane Receptor Antagonism (CAR) (AID 2283344)
# How it was run: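 Single 25 uM duplicate primary screen, with concentration-series follow-up on actives. Cell-free binding format run in antagonist mode, TR-FRET signal taken 1 h post-dose; activity is signal loss relative to DMSO.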
# [3] = NVS_IC_rCaBTZCHL: NovaScreen (NVS) Ion Channel Assay for Calcium Channel, Type L, Benzothiazepine Site (CaBTZCHL) (AID 2283337)
# How it was run: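 Test chemicals were added to rat cortical membranes and incubated 1.5 h with a tritiated or iodinated radioligand for the benzothiazepine site. Bound ligand was separated by filtration and counted. Actives from the 25 uM duplicate screen were retested in concentration series.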
# [4] = target: Estrogen receptor beta (Homo sapiens) (UniProt Q92731); test: OT_ER_ERbERb_0480: Odyssey Thera (OT) 8-hour HEK293T Protein-Complementation Assay for Estrogen Receptor-beta/-beta Homodimer (AID 2283357);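 note: active means signal gain over DMSO baseline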
# How it was run: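 ER-beta LBD homodimer PCA stably expressed in HEK293T; 8 h compound exposure, then formaldehyde fixation and Draq5 staining. Gain in nuclear/cytoplasmic fluorescence intensity versus DMSO vehicle, read on laser scanning cytometer.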
# [5] = target: rat Glutamate, MK-801 Agonist Site (GluNMDA_MK801), Grin1 (gene 24408) (UniProt P35439); test: NVS_LGIC_rGluNMDA_MK801_Agonist: NovaScreen (NVS) Ligand-Gated Ion Channel Assay for rat Glutamate, MK-801 Agonist Site (GluNMDA_MK801) (AID 2283340)
# How it was run: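 Rat forebrain membrane preparation; MK-801-site radioligand binding read by filtration and scintillation after 1.5 h. Single-point 25 uM duplicate screen, followed by singleton concentration series to 50 uM max; DMSO baseline.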
# [6] = target: Estrogen receptor (Homo sapiens) (UniProt P03372); test: OT_ER_ERaERa_0480: Odyssey Thera (OT) 8-hour HEK293T Protein-Complementation Assay for Estrogen Receptor-alpha/-alpha Homodimer (AID 2283351);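 note: rise in fluorescence from reassembled reporter fragments on ERα LBD homodimer in nucleus or whole cell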
# How it was run: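 Cells were treated for 8 hours, then imaged on a laser scanning plate cytometer. Complementation of reporter fragments fused to the human ERα ligand-binding domain (residues 310-547) in HEK293T gave fluorescence, and gain of signal over vehicle was fitted.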
# [7] = target: Estrogen receptor (Homo sapiens) + Estrogen receptor beta (Homo sapiens) (UniProt P03372+Q92731); test: OT_ER_ERaERb_0480: Odyssey Thera (OT) 8-hour HEK293T Protein-Complementation Assay for Estrogen Receptor-alpha/-beta Heterodimer (AID 2283352)
# How it was run: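 Fluorescence increase from reconstituted reporter fragments, quantified by laser scanning cytometer, reflects ER-alpha/ER-beta heterodimer formation in human HEK293T cells. Exposure 8 h; positive-direction fitting against DMSO vehicle.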
# [8] = target: rat Glycine Receptor, Strychnine-sensitive (GlyRStrySens), Glra1 (gene 25674) (UniProt P07727); test: NVS_LGIC_rGlyRStrySens: NovaScreen (NVS) Ligand-Gated Ion Channel Assay for rat Glycine Receptor, Strychnine-sensitive (GlyRStrySens) (AID 2283341)
# How it was run: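 Radioligand displacement on rat spinal cord membranes, 1 hr, filter scintillation read-out. Single-concentration duplicate screen at 25 uM; chemicals meeting threshold (e.g., 30% inhibition) rerun in concentration-response up to 50 uM. Loss of binding fitted versus DMSO.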
# [9] = target: bovine Estrogen Receptor (ER), ESR1 (gene 407238) (UniProt P49884); test: NVS_NR_bER: NovaScreen (NVS) Nuclear Receptor Binding Assay for bovine Estrogen Receptor (ER) (AID 2283345);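 note: actives lower the bound radioligand count which means they displace the ER ligand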
# How it was run: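 Cell-free radioligand binding with receptor from bovine uterine membranes, read by scintillation counting 18 h after dosing. Loss of specific binding was scored against DMSO; primary screen at 25 uM in duplicate, actives then run as concentration series.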
# [10] = target: Estrogen receptor (Homo sapiens) (UniProt P03372); test: NVS_NR_hER: NovaScreen (NVS) Nuclear Receptor Binding Assay for human Estrogen Receptor (ER) (AID 2283348)
# How it was run: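 Cell-free MCF7-derived ER preparation, specific radioligand displaced by test compound, read by scintillation counting 18 h post-dosing. Duplicate single-point 25 uM screen, then concentration-response confirmation; DMSO baseline.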
smiles,measurement,setting,value
FC(F)(F)C(F)(F)C(F)(F)C(F)(F)C(F)(F)C(F)(F)CCI,AC50,[1],inconclusive: 0.265 µM
same,AC50,[2],inconclusive: 12.5 µM
CCn1nc(C)c2c1C(=O)NCC(c1ccc(O)cc1)=N2,outcome,[3],inactive
CCCCCC(C=O)=Cc1ccccc1,AC50,[3],inconclusive: 29.1 µM
O=C1O[C@H]([C@@H](O)CO)C(O)=C1O,outcome,[1],inactive
COC(=O)CSc1cc(N=c2sc(=O)n3n2CCCC3)c(F)cc1Cl,AC50,[1],inconclusive: 25 µM
same,AC50,[4],inconclusive: 50 µM
CCCCCCc1ccc(O)cc1O,AC50,[1],inconclusive: 25 µM
Nc1cccc(N)c1,AC50,[1],active: 6.48 µM
same,AC50,[4],inconclusive: 50 µM
CCCCC(CC)COC(=O)CC(C(=O)OCC(CC)CCCC)S(=O)(=O)O (centres undefined),outcome,[5],inactive
same,AC50,[6],inconclusive: 50 µM
same,AC50,[7],inconclusive: 50 µM
same,AC50,[4],inconclusive: 50 µM
CN(C)CCCN1c2ccccc2Sc2ccc(Cl)cc21,AC50,[5],active: 25 µM
same,AC50,[4],inconclusive: 10.8 µM
CC(=O)c1ccccc1,outcome,[1],inactive
COc1cc(C(=O)NC2CCN(C)CC2)ccc1Nc1ncc2c(n1)N(C1CCCC1)CC(F)(F)C(=O)N2C,AC50,[8],inconclusive: 5.74 µM
same,outcome,[9],inactive
CC1(C)NC(=O)NC1=O,AC50,[1],inconclusive: 1.26 µM
same,AC50,[2],inconclusive: 25.1 µM
same,AC50,[10],inconclusive: 0.84 µM
Cc1nc(C)nc(N2C[C@@H](C)N(c3ccnc([C@@H](C)O)n3)[C@@H](C)C2)n1,AC50,[1],inconclusive: 0.0195 µM
O=C1c2c(O)cccc2Cc2cccc(O)c21,AC50,[8],inconclusive: 9.83 µM

# Part of the list above in a different format.
smiles | measurement | setting | value
COc1cc(C(=O)NC2CCN(C)CC2)ccc1Nc1ncc2c(n1)N(C1CCCC1)CC(F)(F)C(=O)N2C | AC50 | [8] | inconclusive: 5.74 µM
same | outcome | [9] | inactive
CC1(C)NC(=O)NC1=O | AC50 | [1] | inconclusive: 1.26 µM
same | AC50 | [2] | inconclusive: 25.1 µM
